# Results reported in article PMC12040169 (PLOS Biology, 2025).
# Some of the results follow.
# System: T1, CTL2-GFP (C. trachomatis L2/434/Bu, GFP-expressing)
# T1 construct: L2/434/Bu, GFP-expressing
# Set-up: species or system HeLa; Intracellular C. trachomatis growth in HeLa cells, bulk GFP fluorescence relative to DMSO
# Settings: bulk GFP, single well; 28.5 h, 10 µM; inhibitor
row,Compound,% of control remaining [%]
1,O=C1CN(C(=O)CCn2c(C(F)(F)F)cc3cccnc32)CCN1 [CBK284888],140.211
2,COc1ncc(-c2cnc3[nH]c(=O)n(CC4CCOCC4)c3n2)cn1 [CBK064898],176.444
3,COCCNC(=O)c1nn2c(c1Br)NC(c1cccs1)CC2C(F)(F)F (stereo not drawn) [CBK307178],136.468
4,O=C(O)c1cc(C(=O)O)n(Cc2ccccc2Cl)n1 [CBK269381],134.032
5,Cc1ccc(C(=O)C2=C(O)C(=O)N(Cc3cccnc3)C2c2cccc(Oc3ccccc3)c2)o1 (stereo not drawn) [CBK264619],119.114
6,Cc1ccc(S(=O)(=O)N(CC(=O)N/N=C\c2ccc3c(c2)OCO3)c2cccc3cccnc23)cc1 [CBK262478],72.08
7,O=C(Nc1cccnc1)N1CCN(CCc2ccccc2)CC1 [CBK158937],78.0319
8,CCCC/C=C/c1cnc(N)c(Nc2ccc(OC)cc2C)n1 [CBK064090],193.676
9,Cc1cc(C)n(C2CN(C(=O)NCCCOc3cccnc3)C2)n1 [CBK307632],121.332
10,COc1ccc(C=O)cc1CSc1nc2ccccc2[nH]1 [CBK266209],137.52
11,NC(=O)C1CCN(C2CC(=O)N(c3cccc([N+](=O)[O-])c3)C2=O)CC1 (stereo not drawn) [CBK265555],109.308
12,O=C(C1=C(O)C(=O)N(CCCN2CCOCC2)C1c1ccc(Cl)c(Cl)c1)c1cccs1 (stereo not drawn) [CBK264565],107.819
13,Cc1nnc(CN(C)C2CCN(CC3CCCC3)C2)n1C (stereo not drawn) [CBK304851],107.955
14,COc1cc(-c2cncc(N[C@@H](C)c3ccccc3)n2)cc(OC)c1OC [CBK065551],118.108
15,COc1ccc(C(NC(=O)NNC(=O)CCC(=O)c2ccc(F)cc2)c2ccccc2C)cn1 (stereo not drawn) [CBK083659],173.317
16,CN(C)C(=O)c1ccc(-c2ccc3c(c2)COC(C2CCN(C(=O)Cc4ccc(C#N)cc4)CC2)O3)cc1 (stereo not drawn) [CBK149760],135.16
17,CNC(=O)C1(Cc2ccc(-c3cccc(C)c3)cc2)CCN(C(=O)C(C)(C)C)CC1 [CBK285755],114.521
18,CCOC(=O)C1N(C)C(=O)C(Cc2c(Cl)cccc2Cl)=C(C)N1C (stereo not drawn) [CBK112643],86.7683
19,COc1cc2c(c(OC)c1OC)C1(CCN(Cc3ccc(S(C)(=O)=O)cc3)CC1)NC(=O)C2 [CBK040014],116.423
20,Cc1ccc(OCC(=O)NC(=S)Nc2ccc(Cl)c(-c3nc4ncccc4o3)c2)cc1 [CBK263930],101.273
21,COc1ccc(Br)cc1CNCCCN1CCOCC1 [CBK278208C],147.49
22,Cc1cc(C)n(CCCn2cncc2-c2cnn(C)c2)n1 [CBK281771],117.517
23,Cc1ccc(S(=O)(=O)NCCCC(=O)Oc2cc3oc(=O)c4c(c3cc2Cl)CCC4)cc1 [CBK264967],100
24,O=S(=O)(c1ccc(Cl)c(S(=O)(=O)N2CCOCC2)c1)c1ccc(Cl)c(S(=O)(=O)N2CCOCC2)c1 [CBK261369],87.8115
25,Cc1nn(C)c2c1c(=O)n(C)c(=O)n2C [CBK026140],105.611
26,Cc1nnc(SCc2nnnn2-c2ccccc2)nc1O [CBK266302],149.871

# Rewritten as tab-separated lines: 15 of the compounds above.
row	Compound	% of control remaining [%]
1	O=C1CN(C(=O)CCn2c(C(F)(F)F)cc3cccnc32)CCN1 [CBK284888]	140.211
2	COc1ncc(-c2cnc3[nH]c(=O)n(CC4CCOCC4)c3n2)cn1 [CBK064898]	176.444
3	COCCNC(=O)c1nn2c(c1Br)NC(c1cccs1)CC2C(F)(F)F (stereo not drawn) [CBK307178]	136.468
5	Cc1ccc(C(=O)C2=C(O)C(=O)N(Cc3cccnc3)C2c2cccc(Oc3ccccc3)c2)o1 (stereo not drawn) [CBK264619]	119.114
7	O=C(Nc1cccnc1)N1CCN(CCc2ccccc2)CC1 [CBK158937]	78.0319
8	CCCC/C=C/c1cnc(N)c(Nc2ccc(OC)cc2C)n1 [CBK064090]	193.676
9	Cc1cc(C)n(C2CN(C(=O)NCCCOc3cccnc3)C2)n1 [CBK307632]	121.332
11	NC(=O)C1CCN(C2CC(=O)N(c3cccc([N+](=O)[O-])c3)C2=O)CC1 (stereo not drawn) [CBK265555]	109.308
12	O=C(C1=C(O)C(=O)N(CCCN2CCOCC2)C1c1ccc(Cl)c(Cl)c1)c1cccs1 (stereo not drawn) [CBK264565]	107.819
13	Cc1nnc(CN(C)C2CCN(CC3CCCC3)C2)n1C (stereo not drawn) [CBK304851]	107.955
17	CNC(=O)C1(Cc2ccc(-c3cccc(C)c3)cc2)CCN(C(=O)C(C)(C)C)CC1 [CBK285755]	114.521
21	COc1ccc(Br)cc1CNCCCN1CCOCC1 [CBK278208C]	147.49
23	Cc1ccc(S(=O)(=O)NCCCC(=O)Oc2cc3oc(=O)c4c(c3cc2Cl)CCC4)cc1 [CBK264967]	100
24	O=S(=O)(c1ccc(Cl)c(S(=O)(=O)N2CCOCC2)c1)c1ccc(Cl)c(S(=O)(=O)N2CCOCC2)c1 [CBK261369]	87.8115
25	Cc1nn(C)c2c1c(=O)n(C)c(=O)n2C [CBK026140]	105.611

# Later entries:

row,Compound,% of control remaining [%]
1,COc1cc(C(=O)N2CCCC3(CC(=O)c4ccc(C)cc4O3)C2)cc(OC)c1C (stereo not drawn) [CBK168239],79.465
2,COc1ccc(C2NCCc3c2[nH]c2ccccc32)cc1CSc1nc2ccccc2s1 (stereo not drawn) [CBK264303C],100.77
3,Cc1cc(C)c(S(=O)(=O)Nc2nnc(C)s2)c(C)c1 [CBK045497],93.4392
4,CO/N=C(\C(=O)O)c1cn2cccnc2n1 [CBK262252],129.539
5,Clc1ccccc1-c1nccnc1OCCOc1ccccc1 [CBK107011],108.16
6,Cc1cc(OC(=O)C2CCC(CNC(=O)OC(C)(C)C)CC2)c2c3c(c(=O)oc2c1)CCC3 (stereo not drawn) [CBK083583],114.076
7,COc1cccc(C(O)CN2CCC3(CC2)CC(O)c2cc(C)ccc2O3)c1 (stereo not drawn) [CBK286338],119.335
8,Cc1ccc(-c2nnc(CN3C(=O)C4(CC(=O)N(C)C4=O)c4cc(F)ccc43)o2)cc1 (stereo not drawn) [CBK075453],144.044
9,Cc1ccccc1OCCn1c(CCCO)nc2ccccc21 [CBK266182],123.403
10,CCCCN1C(=S)SC(C)(C)C1N(O)C(=O)C1CCCCC1 (stereo not drawn) [CBK008915],117.247
11,OCCN1CCN(CCCc2ccccc2)CC1 [CBK261872],118.808
12,CC(N)(Cc1ccc(Oc2ncc(C(F)(F)F)cc2Cl)cc1)C(=O)O (stereo not drawn) [CBK161647],112.342
13,O=[N+]([O-])c1ccc(Oc2cccc(Cl)c2Cl)c(C(F)(F)F)c1 [CBK002594],90.0209
14,CCc1ccc(S(=O)(=O)Nc2cccnc2)cc1 [CBK287782],95.4337
15,CNC(=O)C1(Cc2ccc(-c3ccccc3)cc2)CCN(C(=O)Cc2ccccc2F)CC1 [CBK285768],137.912
16,CC1=NN(C(=O)c2ccc(Cl)cc2)C(C)(C)C1 [CBK058904],117
17,NC(=O)CSc1nnc(COc2ccc(Br)cc2)n1-c1ccccc1 [CBK267277],136.155
18,CN(C)Cc1ccc(C(=O)N2CCCC2(C)C(=O)N(C)C)cc1 (stereo not drawn) [CBK281955],116.906
19,O=C(NC(Cc1ccsc1)c1cccnc1)C1CCOCC1 (stereo not drawn) [CBK285110],126.36
20,CCc1nc2c(OCc3ccc(Cl)cc3)cccn2c1N(C=O)CC(=O)N(C)C [CBK147518],100
21,Cc1ccc(C(=O)Nc2ccc(C)nc2C)cn1 [CBK200289],120.843
22,c1ccc(Oc2cccc(OCCCN3CCCCC3)c2)cc1 [CBK261781],20.4013
23,COc1ccc([C@@]23CC[C@H](NC(=O)Nc4cccc(C(F)(F)F)c4F)C[C@@H]2CN(C)C3)cc1OC [CBK063200A],100
24,CCCN(CC1CCCO1)C(=O)c1cnn(-c2ccc(F)cc2)c1 (stereo not drawn) [CBK283317],107.398
25,COc1cccc(C(=O)NC(c2ccc(OC)c(OC)c2)c2cc(Cl)c3cccnc3c2O)c1 (stereo not drawn) [CBK264048],115.593
26,Cc1cc(O)ccc1Nc1cc(-c2cc3ccccc3s2)ncn1 [CBK091057],97.6362

row,Compound,% of control remaining [%]
1,O=C(NCCNc1cnccn1)c1cccc(Cl)c1Cl [CBK305727],101.829
2,c1ccc2c(c1)CCCN2Cc1ncc[nH]1 [CBK138332],153.038
3,COc1c(C)cccc1C(=O)N1CCC(c2cc3cnccc3[nH]2)CC1 [CBK283460],135.228
4,COC(=O)c1ccccc1NC(=O)CNC(=O)c1ccccc1Cl [CBK269113],144.568
5,COc1cc(-c2ccc(NCCn3cc[nH]c3=O)nc2)cc(OC)c1OC [CBK036907],166.57
6,CN(C)c1cccc(NC(=O)Nc2ncc(Br)c3cccnc23)c1 [CBK107633],119.538
7,Brc1ccsc1-c1csc(-c2ccccc2)n1 [CBK019859],138.755
8,CCOC(=O)C1=C(N)OC2=C(C(=O)CC(C)(C)C2)C1c1cc(OCC)ccc1OCC (stereo not drawn) [CBK008699],141.669
9,Cc1ccc2nc(SCCC(=O)O)cc(C)c2c1 [CBK286861],115.863
10,O=C(c1cccs1)N1CCC(n2cnc3cccnc32)CC1 [CBK283938],117.972
11,CC(NC1=NC(C)(C)Cc2ccccc21)C(=O)O (stereo not drawn) [CBK262575],119.191
12,Cc1ccc(S(=O)(=O)c2cc3c(=O)n4ccccc4nc3n(CCCN3CCOCC3)c2=N)cc1 [CBK265590],111.266
13,COc1cc(Nc2nc(-c3cccc(NC(C)=O)c3)cn3ccnc23)cc(OC)c1OC [CBK038093],148.51
14,CCC1(CC)Cc2ccccc2-c2nc(NN)n(Cc3ccccc3)c(=O)c21 [CBK263217],105.425
15,CC(C(=O)Nc1ccc(S(N)(=O)=O)cc1)N1Cc2ccccc2C1=O (stereo not drawn) [CBK307607],127.381
16,Cc1ccc(-c2nc(Nc3ccc(F)cc3)sc2CC(=O)O)cc1 [CBK264286],100
17,CCN1CCN(Cc2c(C(C)C)[nH]c3ncccc23)CC1 [CBK285343],137.516
18,CC(C)Cc1cnc2c(c1SCc1ccc(F)cc1)c(=O)n(C)c(=O)n2C [CBK294409],142.096
19,O=C(NC1CCN(C(=O)Cn2ccc3ccncc32)CC1)C1CC1 [CBK284731],78.1109
20,CC(C)CCn1c(=O)c(C(=O)Nc2ccccc2S(N)(=O)=O)c(O)c2ccccc21 [CBK262294],107.271
21,CCOC(=O)c1ccccc1NS(=O)(=O)c1cc(Cl)sc1Cl [CBK045448],105.675
22,CCc1nnc(CN(CC2CCCO2)C2CCC(C)CC2)n1C (stereo not drawn) [CBK304475],125.873
23,COc1cc(C=CC(=O)O)ccc1OCC(=O)NCC(C)C [CBK296721],131.258
24,Cc1nsc2c1[C@H]1[C@H](O)[C@H](O)C[C@H]1C1(CCC1)N2 [CBK303258],131.426
25,COc1cc2nc(NC(=O)c3ccccc3)sc2cc1OC [CBK287701],132.587
26,C=CCOC(=O)C1=C(C)OC(N)=C(C(=O)OCc2ccccc2)C12C(=O)Nc1ccccc12 (stereo not drawn) [CBK262527],101.061
